Laboratory results as given in paper doi:10.1101/326512.
Where two headings read alike, the source gives them in different places. These are yes or no findings as the source states them, for the method shown. In cells and extracts the contact can be indirect. Here binding means that the protein was enriched with, or labelled near, the bait; the list need not be complete. For some assays here: A no says only that the protein was not detected with the bait. Where a sequence is shown, tags or fusion partners need not be part of it.

Protein sequences, listed by entry. Tags and fused reporters are not part of them. Residues count along the entry.
UniProt P20029, residues 20-655: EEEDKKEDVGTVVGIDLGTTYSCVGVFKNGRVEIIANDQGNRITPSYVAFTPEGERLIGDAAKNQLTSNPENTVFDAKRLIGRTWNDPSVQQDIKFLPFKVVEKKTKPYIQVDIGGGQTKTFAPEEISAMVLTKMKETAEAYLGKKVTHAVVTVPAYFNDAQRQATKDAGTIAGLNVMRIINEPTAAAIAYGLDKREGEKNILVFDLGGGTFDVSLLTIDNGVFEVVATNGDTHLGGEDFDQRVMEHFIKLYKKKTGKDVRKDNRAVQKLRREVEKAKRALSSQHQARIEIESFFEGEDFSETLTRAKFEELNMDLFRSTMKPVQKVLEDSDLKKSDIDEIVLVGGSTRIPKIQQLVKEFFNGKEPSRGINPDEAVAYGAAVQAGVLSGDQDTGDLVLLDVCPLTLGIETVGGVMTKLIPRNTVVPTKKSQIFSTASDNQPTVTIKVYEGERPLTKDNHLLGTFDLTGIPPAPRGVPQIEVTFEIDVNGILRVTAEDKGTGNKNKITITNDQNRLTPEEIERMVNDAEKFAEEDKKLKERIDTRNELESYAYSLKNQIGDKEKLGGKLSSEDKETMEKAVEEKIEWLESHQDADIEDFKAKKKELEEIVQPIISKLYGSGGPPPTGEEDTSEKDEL
UniProt P04202, residues 30-390: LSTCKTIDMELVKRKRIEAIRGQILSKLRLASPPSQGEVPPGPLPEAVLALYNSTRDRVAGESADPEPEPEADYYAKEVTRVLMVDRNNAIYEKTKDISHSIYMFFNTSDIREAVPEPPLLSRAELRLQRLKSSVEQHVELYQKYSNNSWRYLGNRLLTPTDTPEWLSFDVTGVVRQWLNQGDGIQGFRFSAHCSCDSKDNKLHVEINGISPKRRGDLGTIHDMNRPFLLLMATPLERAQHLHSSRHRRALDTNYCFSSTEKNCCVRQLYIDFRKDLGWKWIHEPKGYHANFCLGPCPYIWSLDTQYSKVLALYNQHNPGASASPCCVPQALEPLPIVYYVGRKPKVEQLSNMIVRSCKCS
UniProt Q9QYJ3: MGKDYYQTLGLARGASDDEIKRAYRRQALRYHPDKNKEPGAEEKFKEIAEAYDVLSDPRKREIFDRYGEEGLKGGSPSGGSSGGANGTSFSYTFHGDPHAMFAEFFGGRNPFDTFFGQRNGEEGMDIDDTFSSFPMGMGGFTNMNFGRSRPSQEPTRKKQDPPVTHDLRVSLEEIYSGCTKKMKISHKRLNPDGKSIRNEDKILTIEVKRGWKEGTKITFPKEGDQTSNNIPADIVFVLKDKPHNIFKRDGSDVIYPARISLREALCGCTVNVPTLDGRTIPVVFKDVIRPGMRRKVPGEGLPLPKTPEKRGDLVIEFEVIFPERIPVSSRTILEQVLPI

Experiments:
[1] = target: T1, NRROS^LAP (C-terminus LAP-tagged NRROS), stable in RAW 264.7 cells (mouse) (UniProt Q8BMT4); assay: affinity purification with mass spectrometry
T1 sequence: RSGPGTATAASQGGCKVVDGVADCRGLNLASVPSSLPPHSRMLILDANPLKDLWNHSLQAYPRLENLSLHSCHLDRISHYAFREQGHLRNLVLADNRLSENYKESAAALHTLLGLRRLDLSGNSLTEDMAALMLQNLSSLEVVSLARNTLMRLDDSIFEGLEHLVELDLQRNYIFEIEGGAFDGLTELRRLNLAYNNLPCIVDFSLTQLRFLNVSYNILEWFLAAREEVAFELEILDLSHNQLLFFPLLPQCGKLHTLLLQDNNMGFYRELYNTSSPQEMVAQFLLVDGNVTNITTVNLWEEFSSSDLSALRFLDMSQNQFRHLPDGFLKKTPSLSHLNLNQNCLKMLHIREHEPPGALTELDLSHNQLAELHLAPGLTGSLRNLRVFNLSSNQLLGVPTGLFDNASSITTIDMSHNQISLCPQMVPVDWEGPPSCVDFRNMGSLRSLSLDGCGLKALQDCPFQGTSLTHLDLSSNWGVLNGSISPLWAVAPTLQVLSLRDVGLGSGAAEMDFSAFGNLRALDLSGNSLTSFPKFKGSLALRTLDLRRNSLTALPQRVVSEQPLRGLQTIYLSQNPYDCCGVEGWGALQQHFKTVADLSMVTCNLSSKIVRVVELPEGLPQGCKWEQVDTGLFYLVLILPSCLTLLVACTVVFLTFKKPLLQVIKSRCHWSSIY

[2] = target: T2, NRROS^LRR-Flag (NRROS with Flag-tag internal to the protein), stable in RAW 264.7 cells (mouse) (UniProt Q8BMT4); assay: affinity purification with mass spectrometry
T2 sequence: T1 sequence

[3] = target: T1, NRROS^LAP (C-terminus LAP-tagged NRROS), stable in RAW 264.7 cells (mouse); assay: affinity purification with mass spectrometry; remark: listed apart in the source
[4] = target: T1, NRROS^LAP (C-terminus LAP-tagged NRROS), stable in RAW 264.7 cells (mouse); assay: condition: only NRROS^LAP expressed at endogenous level
[5] = target: T1, NRROS^LAP (C-terminus LAP-tagged NRROS), stable in RAW 264.7 cells (mouse); assay: affinity purification with mass spectrometry; remark: listed apart in the source
[6] = target: T2, NRROS^LRR-Flag (NRROS with Flag-tag internal to the protein), stable in RAW 264.7 cells (mouse); assay: affinity purification with mass spectrometry; remark: listed apart in the source

For “Binding Immunoglobin protein (Bip)/Glucose-regulated protein 78(GRP78)/HSPA5 (endogenous, RAW 264.7) (from UniProt P20029 20-655)”, the binding [1] was “binds”, the binding [2] was “binds” and the binding [3] was “binds”.

For “Tgfβ1 (endogenous, RAW 264.7) (from UniProt P04202 30-390)”, the binding [1] was “binds”, the binding [2] was “binds” and the binding [4] was “no binding”.

For “Dnajb1 (endogenous, RAW 264.7) (from UniProt Q9QYJ3 1-340)”, the binding [1] was “binds” and the binding [2] was “binds”.

B1: calnexin (endogenous, RAW 264.7) (protein, UniProt P35564 21-591)
chain: HDGHDDDAIDIEDDLDDVIEEVEDSKSKSDASTPPSPKVTYKAPVPTGEVYFADSFDRGSLSGWILSKAKKDDTDDEIAKYDGKWEVDEMKETKLPGDKGLVLMSRAKHHAISAKLNKPFLFDTKPLIVQYEVNFQNGIECGGAYVKLLSKTAELSLDQFHDKTPYTIMFGPDKCGEDYKLHFIFRHKNPKTGVYEEKHAKRPDADLKTYFTDKKTHLYTLILNPDNSFEILVDQSVVNSGNLLNDMTPPVNPSREIEDPEDRKPEDWDERPKIADPDAVKPDDWDEDAPSKIPDEEATKPEGWLDDEPEYIPDPDAEKPEDWDEDMDGEWEAPQIANPKCESAPGCGVWQRPMIDNPNYKGKWKPPMIDNPNYQGIWKPRKIPNPDFFEDLEPFKMTPFSAIGLELWSMTSDIFFDNFIISGDRRVVDDWANDGWGLKKAADGAAEPGVVLQMLEAAEERPWLWVVYILTVALPVFLVILFCCSGKKQSNAMEYKKTDAPQPDVKDEEGKEEEKNKRDEEEEEEKLEEKQKSDAEEDGVTGSQDEEDSKPKAEEDEILNRSPRNRKPRRE
For B1, the binding [5] was “binds”, the binding [6] was “binds” and the binding [3] was “binds”.

B2: Hypoxia upregulated 1 (HYOU1) (endogenous, RAW 264.7) (protein, UniProt Q9JKR6 33-999)
chain: LAVMSVDLGSESMKVAIVKPGVPMEIVLNKESRRKTPVTVTLKENERFLGDSAAGMAIKNPKATLRYFQHLLGKQADNPHVALYRSRFPEHELIVDPQRQTVRFQISPQLQFSPEEVLGMVLNYSRSLAEDFAEQPIKDAVITVPAFFNQAERRAVLQAARMAGLKVLQLINDNTATALSYGVFRRKDINSTAQNVMFYDMGSGSTVCTIVTYQTVKTKEAGMQPQLQIRGVGFDRTLGGLEMELRLREHLAKLFNEQRKGQKAKDVRENPRAMAKLLREANRLKTVLSANADHMAQIEGLMDDVDFKAKVTRVEFEELCADLFDRVPGPVQQALQSAEMSLDQIEQVILVGGATRVPKVQEVLLKAVGKEELGKNINADEAAAMGAVYQAAALSKAFKVKPFVVRDAVIYPILVEFTREVEEEPGLRSLKHNKRVLFSRMGPYPQRKVITFNRYSHDFNFHINYGDLGFLGPEDLRVFGSQNLTTVKLKGVGESFKKYPDYESKGIKAHFNLDESGVLSLDRVESVFETLVEDSPEEESTLTKLGNTISSLFGGGTSSDAKENGTDAVQEEEESPAEGSKDEPAEQGELKEEAEPPAEETSQPPPSEPKGDAAREGEKPDEKESGDKPEAQKPNEKGQAGPEGAAPAPEEDKKPKPARKQKMVEEIGVELAVLDLPDLPEDELARSVQKLEELTLRDLEKQEREKAANSLEAFIFETQDKLYQPEYQEVSTEEQREEISGKLSATSTWLEDEGFGATTVMLKDKLAELRKLCQGLFFRVEERRKWPERLSALDNLLNHSSIFLKGARLIPEMDQVFTEVEMTTLEKVINDTWAWKNATLAEQAKLPATEKPVLLSKDIEAKMMALDREVQYLLNKAKFTKPRPRPKDKNGTRAEPPLNASAGDQEEKVIPPAGQTEEAKPILEPDKEETGTEPADSEPLELGGPGAGPEQEEQSAGQKRPSKNDEL
In the case of B2, the binding [5] is reported as “binds” and the binding [6] is reported as “binds”.

B3: EDEM1 (endogenous, RAW 264.7) (protein, UniProt Q925U4 1-652)
chain: MQWRALVLGLVLLRLGLHAVLWLVFGLGPSMGFYQRFPLSFGFQRLRDPDGSGPVGPPGGPAWLHRPRRGTEGRLETPPEPGPTPGPGVCGPAHWGYALGGGGCGPDEYERRYSGAFPPQLRAQMRDLARGMFVFGYDNYMAHAFPQDELNPIYCRGRGPDRGDPSNLNINDVLGNYSLTLVDALDTLAIMGNSSEFQKAVKLVINTVSFDKDSTVQVFEATIRVLGSLLSAHRIITDSKQPFGDMTIEDYDNELLYMAHDLAVRLLPAFENTKTGIPYPRVNLKTGVPPDSNNETCTAGAGSLLVEFGILSRLLGDSTFEWVARRAVKALWNLRSNDTGLLGNVVNIQTGHWVGKQSGLGAGLDSFYEYLLKSYILFGEKEDLEMFNAAYQSIQSYLRRGREACNEGEGDPPLYVNVNMFSGQLMNTWIDSLQAFFPGLQVLIGDVEDAICLHAFYYAIWKRYGALPERYNWQLQAPDVLFYPLRPELVESTYLLYQATKNPFYLHVGMDILQSLEKYTKVKCGYATLHHVIDKSKEDRMESFFLSETCKYLYLLFDEENPVHKSGTRYMFTTEGHIISVDKRLRELPWKEFFSEDGERDQEEKFVHRPKSQELRVINSSSNCNRVPDERRYSLPLKSIYMRQIDQMVGLI
For B3, the binding [5] was “binds”.
